Earlier results on one compound are cited in patent US20150139936A1, “DOSAGE AND ADMINISTRATION OF BISPECIFIC SCFV CONJUGATES IN COMBINATION WITH ANTI-CANCER THERAPEUTICS” (Merrimack Pharmaceuticals, Inc., priority 2012, published 2015).

For the data set the following is noted: cited from earlier work.

Take `CC(=O)O[C@H]1C(=O)[C@@]2(C)[C@H]([C@H](OC(=O)c3ccccc3)[C@]3(O)C[C@H](OC(=O)[C@H](O)[C@@H](NC(=O)c4ccccc4)c4ccccc4)C(C)=C1C3(C)C)[C@]1(OC(C)=O)CO[C@@H]1C[C@@H]2O` [paclitaxel]: the water solubility entry is “insoluble in water”.
